Source: the supplement of paper PMC6411743
± gives the standard deviation of the averaged measurements. Only a part is listed here, and it is no random draw.

Protein sequences, listed by entry. Tags and fused reporters are not part of them. Lines headed by an entry give the natural chain unless they say otherwise; changes in a name come on top.
UniProt Q9BQE3, whole entry: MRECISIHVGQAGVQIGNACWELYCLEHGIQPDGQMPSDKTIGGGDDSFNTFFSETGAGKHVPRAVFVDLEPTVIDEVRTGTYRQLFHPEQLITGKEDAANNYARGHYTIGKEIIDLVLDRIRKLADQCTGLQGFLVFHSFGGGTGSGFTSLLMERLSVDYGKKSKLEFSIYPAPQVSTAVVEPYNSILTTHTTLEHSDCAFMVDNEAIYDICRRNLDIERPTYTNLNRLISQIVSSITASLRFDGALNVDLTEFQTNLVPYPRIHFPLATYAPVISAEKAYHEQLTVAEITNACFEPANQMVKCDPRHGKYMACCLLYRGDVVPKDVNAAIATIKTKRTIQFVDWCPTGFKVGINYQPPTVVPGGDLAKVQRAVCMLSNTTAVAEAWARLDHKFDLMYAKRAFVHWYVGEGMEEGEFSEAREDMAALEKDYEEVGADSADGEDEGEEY
UniProt P63208, whole entry: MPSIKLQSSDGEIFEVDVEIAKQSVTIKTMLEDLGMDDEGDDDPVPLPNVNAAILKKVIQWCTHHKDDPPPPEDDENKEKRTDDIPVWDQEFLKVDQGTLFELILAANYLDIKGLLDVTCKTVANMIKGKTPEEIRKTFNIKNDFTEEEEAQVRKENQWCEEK
UniProt Q86X53: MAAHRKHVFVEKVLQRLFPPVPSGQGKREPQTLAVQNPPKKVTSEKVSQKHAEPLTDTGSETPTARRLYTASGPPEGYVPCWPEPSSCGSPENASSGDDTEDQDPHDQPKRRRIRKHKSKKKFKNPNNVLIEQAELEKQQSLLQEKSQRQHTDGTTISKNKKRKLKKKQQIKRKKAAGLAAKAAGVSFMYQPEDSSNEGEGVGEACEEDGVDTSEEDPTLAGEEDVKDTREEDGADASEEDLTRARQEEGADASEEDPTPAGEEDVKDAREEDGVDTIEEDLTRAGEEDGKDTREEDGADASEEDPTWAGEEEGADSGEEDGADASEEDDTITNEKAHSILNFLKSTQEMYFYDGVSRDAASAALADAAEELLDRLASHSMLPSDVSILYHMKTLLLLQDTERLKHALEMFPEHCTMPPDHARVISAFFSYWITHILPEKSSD
UniProt Q96A26: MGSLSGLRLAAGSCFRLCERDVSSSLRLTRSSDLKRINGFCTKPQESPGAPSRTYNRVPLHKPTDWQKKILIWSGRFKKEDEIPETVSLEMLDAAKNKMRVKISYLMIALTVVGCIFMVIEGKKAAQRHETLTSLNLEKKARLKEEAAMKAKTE
UniProt P40855: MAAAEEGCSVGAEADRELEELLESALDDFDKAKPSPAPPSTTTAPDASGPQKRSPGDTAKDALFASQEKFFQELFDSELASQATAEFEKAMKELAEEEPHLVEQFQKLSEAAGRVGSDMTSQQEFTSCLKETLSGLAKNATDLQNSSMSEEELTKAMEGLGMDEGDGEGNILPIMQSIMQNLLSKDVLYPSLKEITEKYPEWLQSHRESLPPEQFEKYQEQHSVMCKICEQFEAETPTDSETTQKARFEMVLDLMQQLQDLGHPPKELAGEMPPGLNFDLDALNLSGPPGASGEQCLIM
UniProt Q9UI43: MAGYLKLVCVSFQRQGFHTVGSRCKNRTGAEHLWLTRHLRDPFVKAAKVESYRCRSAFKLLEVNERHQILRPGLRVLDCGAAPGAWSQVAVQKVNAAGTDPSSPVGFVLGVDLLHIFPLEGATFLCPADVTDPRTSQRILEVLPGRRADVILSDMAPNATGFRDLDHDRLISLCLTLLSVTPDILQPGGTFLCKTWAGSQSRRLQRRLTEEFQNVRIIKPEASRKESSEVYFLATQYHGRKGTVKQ
UniProt P60660, whole entry: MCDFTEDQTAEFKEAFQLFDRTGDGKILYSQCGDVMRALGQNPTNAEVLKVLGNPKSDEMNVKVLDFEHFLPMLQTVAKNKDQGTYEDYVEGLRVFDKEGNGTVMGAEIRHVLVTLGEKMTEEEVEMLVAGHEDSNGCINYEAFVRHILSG
UniProt P09496: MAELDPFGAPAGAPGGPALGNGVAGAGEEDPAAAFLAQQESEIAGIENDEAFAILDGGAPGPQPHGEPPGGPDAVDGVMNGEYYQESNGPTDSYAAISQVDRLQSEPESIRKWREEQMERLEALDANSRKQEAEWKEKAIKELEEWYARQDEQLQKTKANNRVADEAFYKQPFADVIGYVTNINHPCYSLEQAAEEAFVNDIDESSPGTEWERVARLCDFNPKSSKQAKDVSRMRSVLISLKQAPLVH
UniProt P34913, whole entry: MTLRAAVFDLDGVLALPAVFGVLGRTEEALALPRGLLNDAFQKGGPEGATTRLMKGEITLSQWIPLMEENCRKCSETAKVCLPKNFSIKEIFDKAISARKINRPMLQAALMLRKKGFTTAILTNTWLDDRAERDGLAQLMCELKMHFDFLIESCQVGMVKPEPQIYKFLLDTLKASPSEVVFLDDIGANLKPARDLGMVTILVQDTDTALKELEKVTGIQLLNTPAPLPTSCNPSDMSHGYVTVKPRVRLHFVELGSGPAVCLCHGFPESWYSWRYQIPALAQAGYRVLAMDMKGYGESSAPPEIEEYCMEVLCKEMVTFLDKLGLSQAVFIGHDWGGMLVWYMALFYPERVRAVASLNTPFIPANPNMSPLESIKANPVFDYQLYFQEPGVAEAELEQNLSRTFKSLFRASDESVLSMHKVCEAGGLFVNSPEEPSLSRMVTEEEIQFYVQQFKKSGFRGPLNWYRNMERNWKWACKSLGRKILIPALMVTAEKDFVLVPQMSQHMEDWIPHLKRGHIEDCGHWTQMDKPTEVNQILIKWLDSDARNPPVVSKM
UniProt P27816: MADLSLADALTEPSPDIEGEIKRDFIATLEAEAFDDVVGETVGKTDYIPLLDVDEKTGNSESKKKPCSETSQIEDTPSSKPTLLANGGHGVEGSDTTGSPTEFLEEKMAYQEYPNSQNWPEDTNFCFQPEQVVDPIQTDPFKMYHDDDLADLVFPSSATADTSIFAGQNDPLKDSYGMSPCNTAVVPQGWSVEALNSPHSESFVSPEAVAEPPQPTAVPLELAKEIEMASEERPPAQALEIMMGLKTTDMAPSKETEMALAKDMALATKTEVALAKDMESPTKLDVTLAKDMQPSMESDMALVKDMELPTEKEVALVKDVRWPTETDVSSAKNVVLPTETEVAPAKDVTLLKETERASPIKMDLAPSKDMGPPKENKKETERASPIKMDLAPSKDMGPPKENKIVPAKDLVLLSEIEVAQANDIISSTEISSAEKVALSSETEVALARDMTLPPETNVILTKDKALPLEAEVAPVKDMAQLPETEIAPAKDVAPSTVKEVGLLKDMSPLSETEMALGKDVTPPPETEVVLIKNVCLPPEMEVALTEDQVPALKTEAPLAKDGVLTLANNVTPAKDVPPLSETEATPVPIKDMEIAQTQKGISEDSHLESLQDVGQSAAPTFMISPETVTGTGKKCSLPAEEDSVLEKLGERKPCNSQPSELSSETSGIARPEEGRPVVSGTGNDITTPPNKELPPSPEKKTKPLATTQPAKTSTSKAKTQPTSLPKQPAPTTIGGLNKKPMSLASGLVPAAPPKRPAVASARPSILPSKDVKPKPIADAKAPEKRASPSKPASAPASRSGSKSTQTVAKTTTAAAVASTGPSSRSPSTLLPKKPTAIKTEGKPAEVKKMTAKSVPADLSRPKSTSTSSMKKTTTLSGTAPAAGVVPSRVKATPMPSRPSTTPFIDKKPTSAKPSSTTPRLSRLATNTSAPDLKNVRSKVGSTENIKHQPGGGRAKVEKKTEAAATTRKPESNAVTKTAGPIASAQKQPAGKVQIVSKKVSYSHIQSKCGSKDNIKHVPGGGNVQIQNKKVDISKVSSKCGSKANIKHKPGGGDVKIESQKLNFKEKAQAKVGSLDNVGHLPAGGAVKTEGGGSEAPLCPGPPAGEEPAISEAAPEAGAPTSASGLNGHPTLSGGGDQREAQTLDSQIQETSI
UniProt Q9Y2W6: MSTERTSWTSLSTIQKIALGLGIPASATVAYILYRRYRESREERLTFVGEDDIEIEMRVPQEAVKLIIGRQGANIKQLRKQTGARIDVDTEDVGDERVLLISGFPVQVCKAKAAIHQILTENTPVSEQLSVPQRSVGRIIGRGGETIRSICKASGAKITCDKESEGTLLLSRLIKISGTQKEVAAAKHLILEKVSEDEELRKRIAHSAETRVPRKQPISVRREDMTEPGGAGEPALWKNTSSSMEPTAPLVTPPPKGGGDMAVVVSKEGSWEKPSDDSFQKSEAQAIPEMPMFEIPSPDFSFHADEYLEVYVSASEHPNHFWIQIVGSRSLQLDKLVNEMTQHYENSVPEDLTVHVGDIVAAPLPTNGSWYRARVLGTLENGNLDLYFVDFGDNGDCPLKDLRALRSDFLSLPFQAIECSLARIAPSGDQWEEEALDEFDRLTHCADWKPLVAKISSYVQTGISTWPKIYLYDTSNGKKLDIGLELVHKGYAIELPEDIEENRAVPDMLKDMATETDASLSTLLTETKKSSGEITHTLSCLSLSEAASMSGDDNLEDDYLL
UniProt Q8TAG9: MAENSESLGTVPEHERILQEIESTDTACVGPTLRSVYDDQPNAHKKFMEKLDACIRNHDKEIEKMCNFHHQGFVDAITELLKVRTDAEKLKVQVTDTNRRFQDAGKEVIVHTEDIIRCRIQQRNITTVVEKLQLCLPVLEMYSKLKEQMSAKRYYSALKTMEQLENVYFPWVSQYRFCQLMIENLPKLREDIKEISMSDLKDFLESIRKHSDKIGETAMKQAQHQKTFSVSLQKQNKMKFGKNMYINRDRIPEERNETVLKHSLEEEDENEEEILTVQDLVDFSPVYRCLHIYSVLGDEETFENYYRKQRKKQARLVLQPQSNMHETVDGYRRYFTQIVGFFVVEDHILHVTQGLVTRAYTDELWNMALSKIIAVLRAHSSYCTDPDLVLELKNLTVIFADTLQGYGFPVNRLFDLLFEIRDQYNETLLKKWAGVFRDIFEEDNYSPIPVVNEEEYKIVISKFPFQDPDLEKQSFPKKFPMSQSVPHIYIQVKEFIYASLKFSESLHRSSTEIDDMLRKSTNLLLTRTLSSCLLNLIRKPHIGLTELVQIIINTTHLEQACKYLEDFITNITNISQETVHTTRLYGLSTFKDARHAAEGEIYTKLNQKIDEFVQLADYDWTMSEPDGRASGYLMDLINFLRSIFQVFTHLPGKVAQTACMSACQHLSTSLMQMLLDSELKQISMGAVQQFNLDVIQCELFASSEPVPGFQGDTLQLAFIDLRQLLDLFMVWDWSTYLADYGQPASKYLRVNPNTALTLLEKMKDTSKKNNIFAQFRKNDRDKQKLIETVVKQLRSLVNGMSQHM
UniProt O75347: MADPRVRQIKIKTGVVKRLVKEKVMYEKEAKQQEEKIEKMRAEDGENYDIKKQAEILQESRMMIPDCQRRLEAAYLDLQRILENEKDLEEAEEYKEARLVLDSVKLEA
UniProt Q6DD88: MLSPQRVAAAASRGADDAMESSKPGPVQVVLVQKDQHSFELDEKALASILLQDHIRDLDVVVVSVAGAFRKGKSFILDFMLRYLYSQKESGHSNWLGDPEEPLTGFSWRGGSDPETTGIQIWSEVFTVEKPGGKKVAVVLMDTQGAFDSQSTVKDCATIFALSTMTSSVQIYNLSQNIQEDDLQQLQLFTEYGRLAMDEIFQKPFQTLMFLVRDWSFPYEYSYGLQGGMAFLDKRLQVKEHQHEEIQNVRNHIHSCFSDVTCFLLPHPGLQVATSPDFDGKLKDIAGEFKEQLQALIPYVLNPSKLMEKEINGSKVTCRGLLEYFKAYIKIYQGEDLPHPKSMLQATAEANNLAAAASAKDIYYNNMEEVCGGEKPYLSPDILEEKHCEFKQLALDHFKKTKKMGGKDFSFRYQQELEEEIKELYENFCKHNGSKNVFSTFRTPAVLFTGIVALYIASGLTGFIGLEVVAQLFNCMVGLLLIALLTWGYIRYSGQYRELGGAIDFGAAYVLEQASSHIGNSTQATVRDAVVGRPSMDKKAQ
UniProt O00244: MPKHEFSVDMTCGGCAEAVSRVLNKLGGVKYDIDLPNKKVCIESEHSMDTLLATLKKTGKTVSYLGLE
UniProt P15311, whole entry: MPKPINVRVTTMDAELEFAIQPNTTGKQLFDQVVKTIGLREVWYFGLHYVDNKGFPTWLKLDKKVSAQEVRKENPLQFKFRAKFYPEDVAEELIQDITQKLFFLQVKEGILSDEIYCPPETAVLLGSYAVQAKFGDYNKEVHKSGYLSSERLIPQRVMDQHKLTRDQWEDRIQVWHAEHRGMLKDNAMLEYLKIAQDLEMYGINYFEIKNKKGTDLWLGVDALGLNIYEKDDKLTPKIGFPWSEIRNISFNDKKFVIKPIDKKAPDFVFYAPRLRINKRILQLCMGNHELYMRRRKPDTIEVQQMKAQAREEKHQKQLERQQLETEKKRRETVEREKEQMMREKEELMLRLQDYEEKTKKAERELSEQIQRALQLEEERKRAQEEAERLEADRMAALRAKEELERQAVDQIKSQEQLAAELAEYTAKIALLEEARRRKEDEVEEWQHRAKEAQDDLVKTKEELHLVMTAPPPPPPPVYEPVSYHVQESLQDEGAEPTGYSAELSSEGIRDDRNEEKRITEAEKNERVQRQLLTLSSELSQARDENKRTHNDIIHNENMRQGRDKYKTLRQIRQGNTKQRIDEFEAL

Compound: Nc1ncnc2c1ncn2[C@@H]1O[C@H](COP(=O)(O)OP(=O)(O)OP(=O)(O)O)[C@@H](O)[C@H]1O [adenosine triphosphate]
Experiment: NP40-soluble protein abundance relative to vehicle (solubility fold change) (ratio); higher = more soluble protein in presence of ATP
Outline: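 In three independent experiments, Jurkat crude lysate made by Dounce homogenisation was treated for 10 min at room temperature and then 3 min at 37 °C with eight concentrations ranging from 0.1 to 10 mM. It was then solubilised with 0.8% NP40 plus benzonase for 60 min at 4 °C and ultracentrifuged. The supernatant was TMT-labelled for LC-MS/MS, and each value is the fold change against the detergent-processed vehicle for the same replicate, using vsn-normalised intensities.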

Target	NP40-soluble protein abundance (concentration: 1mM)	NP40-soluble protein abundance (concentration: 2mM)	NP40-soluble protein abundance (concentration: 4mM)	NP40-soluble protein abundance (concentration: 6mM)	NP40-soluble protein abundance (concentration: 8mM)	NP40-soluble protein abundance (concentration: 10mM)
G3XAH6 and related entries (UniProt P51003)	0.959 ± 0.017	0.966 ± 0.036	0.94 ± 0.018	0.951 ± 0.04	0.9271 ± 0.0066	0.9511 ± 0.007
F5H5D3 and related entries (UniProt Q9BQE3)	1.01 ± 0.13	0.943 ± 0.12	0.946 ± 0.081	0.872 ± 0.19	0.991 ± 0.075	0.762 ± 0.45
F6VUX8 and related entries (UniProt Q9HC77)	0.867 ± 0.035	0.973 ± 0.052	0.919 ± 0.069	1.05 ± 0.069	0.931 ± 0.023	0.946 ± 0.063
F5H8H2 and related entries (UniProt Q03426)	1.03 ± 0.083	1.03 ± 0.065	1.03 ± 0.047	1 ± 0.082	1.03 ± 0.1	1.01 ± 0.061
F8W1A4 and related entries (UniProt P54819)	0.952 ± 0.083	0.949 ± 0.029	0.919 ± 0.036	0.971 ± 0.026	0.917 ± 0.0099	0.895 ± 0.047
E5RJR5 and related entries (UniProt P63208)	0.937 ± 0.089	0.96 ± 0.056	0.937 ± 0.048	0.99 ± 0.11	0.947 ± 0.018	0.899 ± 0.063
E5RHA3 and related entries (UniProt Q86X53)	0.96 ± 0.11	0.976 ± 0.062	0.963 ± 0.078	0.954 ± 0.035	0.931 ± 0.062	0.97 ± 0.12
E9PNT2 and related entries (UniProt Q6ZUM4)	0.986 ± 0.021	0.993 ± 0.025	0.993 ± 0.021	1 ± 0.06	1.03 ± 0.028	1.01 ± 0.045
F8WA39 and related entries (UniProt Q13613)	1.05 ± 0.019	1.02 ± 0.034	1.04 ± 0.034	0.998 ± 0.03	1.04 ± 0.018	1.01 ± 0.032
E9PGT1 (UniProt Q15631)	1.02 ± 0.074	0.953 ± 0.048	0.946 ± 0.052	0.912 ± 0.058	0.988 ± 0.057	0.9 ± 0.049
F8W7Q4 and related entries (UniProt Q96A26)	0.928 ± 0.18	0.928 ± 0.2	0.923 ± 0.18	0.887 ± 0.21	0.832 ± 0.092	0.854 ± 0.17
F5H538 and related entries (UniProt Q9Y6R4)	1.04 ± 0.05	1.05 ± 0.13	1.09 ± 0.17	1.11 ± 0.21	1.11 ± 0.23	1.16 ± 0.31
F8VQZ7 and related entries (UniProt P50579)	0.989 ± 0.028	0.997 ± 0.023	1.03 ± 0.03	1.01 ± 0.016	1.02 ± 0.014	1.02 ± 0.011
F8VU11 and related entries (UniProt Q6NWY9)	1.05 ± 0.053	1.1 ± 0.074	1.15 ± 0.15	1.16 ± 0.098	1.09 ± 0.16	1.17 ± 0.2
G3V3G9 (UniProt P40855)	0.965 ± 0.018	0.997 ± 0.019	0.973 ± 0.01	0.97 ± 0.015	0.972 ± 0.019	0.982 ± 0.022
E9PGN6 and related entries (UniProt Q9UI43+E9PGN6)	0.986 ± 0.011	1.09 ± 0.12	1.13 ± 0.11	1.2 ± 0.12	1.07 ± 0.025	1.08 ± 0.02
G3V1V0 and related entries (UniProt P60660)	0.948 ± 0.1	0.927 ± 0.11	0.914 ± 0.045	0.963 ± 0.16	0.892 ± 0.074	0.822 ± 0.079

Target	NP40-soluble protein abundance (concentration: 1mM)	NP40-soluble protein abundance (concentration: 2mM)	NP40-soluble protein abundance (concentration: 4mM)	NP40-soluble protein abundance (concentration: 6mM)	NP40-soluble protein abundance (concentration: 8mM)	NP40-soluble protein abundance (concentration: 10mM)
F8WF69 and related entries (UniProt P09496)	1 ± 0.063	1.05 ± 0.09	1.07 ± 0.029	1.19 ± 0.15	1.03 ± 0.021	1.02 ± 0.096
E5RFU2 and related entries (UniProt P34913)	0.952 ± 0.043	0.9392 ± 0.0089	0.971 ± 0.011	0.961 ± 0.06	0.9598 ± 0.0024	0.94 ± 0.036
E7ESA6 and related entries (UniProt Q05397)	1.11 ± 0.25	1.18 ± 0.17	1.15 ± 0.22	1.02 ± 0.12	1.15 ± 0.23	1.05 ± 0.15
E7EVA0 and related entries (UniProt P27816)	0.929 ± 0.062	0.933 ± 0.015	0.903 ± 0.024	0.991 ± 0.037	0.913 ± 0.032	0.916 ± 0.018
G3V1C3 and related entries (UniProt Q9BZZ5)	0.856 ± 0.032	0.9098 ± 0.0082	0.885 ± 0.024	0.954 ± 0.021	0.914 ± 0.023	0.959 ± 0.025
F6TB26 and related entries (UniProt Q9Y2W6)	0.967 ± 0.023	0.967 ± 0.021	0.948 ± 0.019	0.9912 ± 0.0029	0.919 ± 0.036	0.95 ± 0.013
E7EW84 and related entries (UniProt Q8TAG9)	0.968 ± 0.047	0.967 ± 0.013	0.981 ± 0.097	0.947 ± 0.1	0.953 ± 0.045	1 ± 0.065
E5RJD8 and related entries (UniProt O75347)	0.887 ± 0.12	0.897 ± 0.088	0.845 ± 0.085	0.99 ± 0.1	0.814 ± 0.053	0.831 ± 0.06
F5H6I7 and related entries (UniProt Q6DD88)	1.01 ± 0.053	0.999 ± 0.068	0.967 ± 0.062	0.971 ± 0.089	0.98 ± 0.045	0.975 ± 0.062
E5RIM7 and related entries (UniProt O00244)	0.905 ± 0.075	0.881 ± 0.056	0.86 ± 0.063	0.869 ± 0.034	0.875 ± 0.016	0.765 ± 0.12
E5RIH5 and related entries (UniProt Q6NXR4)	0.942 ± 0.024	0.929 ± 0.027	0.929 ± 0.039	0.972 ± 0.011	0.958 ± 0.019	0.958 ± 0.067
F8VXU5 and related entries (UniProt Q9UBQ0)	0.954 ± 0.087	0.959 ± 0.071	0.92 ± 0.057	0.889 ± 0.081	0.929 ± 0.035	0.938 ± 0.086
E5KP25 and related entries (UniProt Q9UIF7)	0.864 ± 0.091	0.853 ± 0.015	0.893 ± 0.1	0.832 ± 0.03	0.805 ± 0.03	0.864 ± 0.018
E9PIE4 and related entries (UniProt Q9Y6C9)	0.98 ± 0.081	0.947 ± 0.048	0.946 ± 0.03	0.877 ± 0.075	0.965 ± 0.026	0.939 ± 0.039
E7ETU7 and related entries (UniProt P09001)	1.07 ± 0.033	0.908 ± 0.082	0.904 ± 0.13	0.873 ± 0.26	0.896 ± 0.18	0.855 ± 0.16
E7EQR4 and related entries (UniProt P15311)	0.959 ± 0.024	0.957 ± 0.026	0.925 ± 0.034	0.972 ± 0.047	0.953 ± 0.053	0.93 ± 0.04

Rewritten bar-delimited: part of the list above.
Target | NP40-soluble protein abundance (concentration: 1mM) | NP40-soluble protein abundance (concentration: 2mM) | NP40-soluble protein abundance (concentration: 4mM) | NP40-soluble protein abundance (concentration: 6mM) | NP40-soluble protein abundance (concentration: 8mM) | NP40-soluble protein abundance (concentration: 10mM)
F8W1A4 and related entries (UniProt P54819) | 0.952 ± 0.083 | 0.949 ± 0.029 | 0.919 ± 0.036 | 0.971 ± 0.026 | 0.917 ± 0.0099 | 0.895 ± 0.047
E7EW84 and related entries (UniProt Q8TAG9) | 0.968 ± 0.047 | 0.967 ± 0.013 | 0.981 ± 0.097 | 0.947 ± 0.1 | 0.953 ± 0.045 | 1 ± 0.065
